The target in this assay is TRIM52 (ΔLoop2), HA-tagged (human) (UniProt Q96A61). Description: co-IP.

Sequences of proteins named here, by UniProt entry; tags and fusion partners are left off. A change or cut given only in a name is not applied to a line headed by its entry.
UniProt Q96A61: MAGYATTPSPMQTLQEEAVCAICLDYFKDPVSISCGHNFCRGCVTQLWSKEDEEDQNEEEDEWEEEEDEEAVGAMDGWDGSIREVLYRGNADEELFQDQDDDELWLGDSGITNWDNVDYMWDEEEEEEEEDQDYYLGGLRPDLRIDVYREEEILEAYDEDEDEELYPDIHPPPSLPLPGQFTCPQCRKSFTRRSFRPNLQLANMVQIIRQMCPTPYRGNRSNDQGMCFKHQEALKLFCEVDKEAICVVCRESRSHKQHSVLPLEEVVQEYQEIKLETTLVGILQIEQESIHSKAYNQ
UniProt Q9NR09: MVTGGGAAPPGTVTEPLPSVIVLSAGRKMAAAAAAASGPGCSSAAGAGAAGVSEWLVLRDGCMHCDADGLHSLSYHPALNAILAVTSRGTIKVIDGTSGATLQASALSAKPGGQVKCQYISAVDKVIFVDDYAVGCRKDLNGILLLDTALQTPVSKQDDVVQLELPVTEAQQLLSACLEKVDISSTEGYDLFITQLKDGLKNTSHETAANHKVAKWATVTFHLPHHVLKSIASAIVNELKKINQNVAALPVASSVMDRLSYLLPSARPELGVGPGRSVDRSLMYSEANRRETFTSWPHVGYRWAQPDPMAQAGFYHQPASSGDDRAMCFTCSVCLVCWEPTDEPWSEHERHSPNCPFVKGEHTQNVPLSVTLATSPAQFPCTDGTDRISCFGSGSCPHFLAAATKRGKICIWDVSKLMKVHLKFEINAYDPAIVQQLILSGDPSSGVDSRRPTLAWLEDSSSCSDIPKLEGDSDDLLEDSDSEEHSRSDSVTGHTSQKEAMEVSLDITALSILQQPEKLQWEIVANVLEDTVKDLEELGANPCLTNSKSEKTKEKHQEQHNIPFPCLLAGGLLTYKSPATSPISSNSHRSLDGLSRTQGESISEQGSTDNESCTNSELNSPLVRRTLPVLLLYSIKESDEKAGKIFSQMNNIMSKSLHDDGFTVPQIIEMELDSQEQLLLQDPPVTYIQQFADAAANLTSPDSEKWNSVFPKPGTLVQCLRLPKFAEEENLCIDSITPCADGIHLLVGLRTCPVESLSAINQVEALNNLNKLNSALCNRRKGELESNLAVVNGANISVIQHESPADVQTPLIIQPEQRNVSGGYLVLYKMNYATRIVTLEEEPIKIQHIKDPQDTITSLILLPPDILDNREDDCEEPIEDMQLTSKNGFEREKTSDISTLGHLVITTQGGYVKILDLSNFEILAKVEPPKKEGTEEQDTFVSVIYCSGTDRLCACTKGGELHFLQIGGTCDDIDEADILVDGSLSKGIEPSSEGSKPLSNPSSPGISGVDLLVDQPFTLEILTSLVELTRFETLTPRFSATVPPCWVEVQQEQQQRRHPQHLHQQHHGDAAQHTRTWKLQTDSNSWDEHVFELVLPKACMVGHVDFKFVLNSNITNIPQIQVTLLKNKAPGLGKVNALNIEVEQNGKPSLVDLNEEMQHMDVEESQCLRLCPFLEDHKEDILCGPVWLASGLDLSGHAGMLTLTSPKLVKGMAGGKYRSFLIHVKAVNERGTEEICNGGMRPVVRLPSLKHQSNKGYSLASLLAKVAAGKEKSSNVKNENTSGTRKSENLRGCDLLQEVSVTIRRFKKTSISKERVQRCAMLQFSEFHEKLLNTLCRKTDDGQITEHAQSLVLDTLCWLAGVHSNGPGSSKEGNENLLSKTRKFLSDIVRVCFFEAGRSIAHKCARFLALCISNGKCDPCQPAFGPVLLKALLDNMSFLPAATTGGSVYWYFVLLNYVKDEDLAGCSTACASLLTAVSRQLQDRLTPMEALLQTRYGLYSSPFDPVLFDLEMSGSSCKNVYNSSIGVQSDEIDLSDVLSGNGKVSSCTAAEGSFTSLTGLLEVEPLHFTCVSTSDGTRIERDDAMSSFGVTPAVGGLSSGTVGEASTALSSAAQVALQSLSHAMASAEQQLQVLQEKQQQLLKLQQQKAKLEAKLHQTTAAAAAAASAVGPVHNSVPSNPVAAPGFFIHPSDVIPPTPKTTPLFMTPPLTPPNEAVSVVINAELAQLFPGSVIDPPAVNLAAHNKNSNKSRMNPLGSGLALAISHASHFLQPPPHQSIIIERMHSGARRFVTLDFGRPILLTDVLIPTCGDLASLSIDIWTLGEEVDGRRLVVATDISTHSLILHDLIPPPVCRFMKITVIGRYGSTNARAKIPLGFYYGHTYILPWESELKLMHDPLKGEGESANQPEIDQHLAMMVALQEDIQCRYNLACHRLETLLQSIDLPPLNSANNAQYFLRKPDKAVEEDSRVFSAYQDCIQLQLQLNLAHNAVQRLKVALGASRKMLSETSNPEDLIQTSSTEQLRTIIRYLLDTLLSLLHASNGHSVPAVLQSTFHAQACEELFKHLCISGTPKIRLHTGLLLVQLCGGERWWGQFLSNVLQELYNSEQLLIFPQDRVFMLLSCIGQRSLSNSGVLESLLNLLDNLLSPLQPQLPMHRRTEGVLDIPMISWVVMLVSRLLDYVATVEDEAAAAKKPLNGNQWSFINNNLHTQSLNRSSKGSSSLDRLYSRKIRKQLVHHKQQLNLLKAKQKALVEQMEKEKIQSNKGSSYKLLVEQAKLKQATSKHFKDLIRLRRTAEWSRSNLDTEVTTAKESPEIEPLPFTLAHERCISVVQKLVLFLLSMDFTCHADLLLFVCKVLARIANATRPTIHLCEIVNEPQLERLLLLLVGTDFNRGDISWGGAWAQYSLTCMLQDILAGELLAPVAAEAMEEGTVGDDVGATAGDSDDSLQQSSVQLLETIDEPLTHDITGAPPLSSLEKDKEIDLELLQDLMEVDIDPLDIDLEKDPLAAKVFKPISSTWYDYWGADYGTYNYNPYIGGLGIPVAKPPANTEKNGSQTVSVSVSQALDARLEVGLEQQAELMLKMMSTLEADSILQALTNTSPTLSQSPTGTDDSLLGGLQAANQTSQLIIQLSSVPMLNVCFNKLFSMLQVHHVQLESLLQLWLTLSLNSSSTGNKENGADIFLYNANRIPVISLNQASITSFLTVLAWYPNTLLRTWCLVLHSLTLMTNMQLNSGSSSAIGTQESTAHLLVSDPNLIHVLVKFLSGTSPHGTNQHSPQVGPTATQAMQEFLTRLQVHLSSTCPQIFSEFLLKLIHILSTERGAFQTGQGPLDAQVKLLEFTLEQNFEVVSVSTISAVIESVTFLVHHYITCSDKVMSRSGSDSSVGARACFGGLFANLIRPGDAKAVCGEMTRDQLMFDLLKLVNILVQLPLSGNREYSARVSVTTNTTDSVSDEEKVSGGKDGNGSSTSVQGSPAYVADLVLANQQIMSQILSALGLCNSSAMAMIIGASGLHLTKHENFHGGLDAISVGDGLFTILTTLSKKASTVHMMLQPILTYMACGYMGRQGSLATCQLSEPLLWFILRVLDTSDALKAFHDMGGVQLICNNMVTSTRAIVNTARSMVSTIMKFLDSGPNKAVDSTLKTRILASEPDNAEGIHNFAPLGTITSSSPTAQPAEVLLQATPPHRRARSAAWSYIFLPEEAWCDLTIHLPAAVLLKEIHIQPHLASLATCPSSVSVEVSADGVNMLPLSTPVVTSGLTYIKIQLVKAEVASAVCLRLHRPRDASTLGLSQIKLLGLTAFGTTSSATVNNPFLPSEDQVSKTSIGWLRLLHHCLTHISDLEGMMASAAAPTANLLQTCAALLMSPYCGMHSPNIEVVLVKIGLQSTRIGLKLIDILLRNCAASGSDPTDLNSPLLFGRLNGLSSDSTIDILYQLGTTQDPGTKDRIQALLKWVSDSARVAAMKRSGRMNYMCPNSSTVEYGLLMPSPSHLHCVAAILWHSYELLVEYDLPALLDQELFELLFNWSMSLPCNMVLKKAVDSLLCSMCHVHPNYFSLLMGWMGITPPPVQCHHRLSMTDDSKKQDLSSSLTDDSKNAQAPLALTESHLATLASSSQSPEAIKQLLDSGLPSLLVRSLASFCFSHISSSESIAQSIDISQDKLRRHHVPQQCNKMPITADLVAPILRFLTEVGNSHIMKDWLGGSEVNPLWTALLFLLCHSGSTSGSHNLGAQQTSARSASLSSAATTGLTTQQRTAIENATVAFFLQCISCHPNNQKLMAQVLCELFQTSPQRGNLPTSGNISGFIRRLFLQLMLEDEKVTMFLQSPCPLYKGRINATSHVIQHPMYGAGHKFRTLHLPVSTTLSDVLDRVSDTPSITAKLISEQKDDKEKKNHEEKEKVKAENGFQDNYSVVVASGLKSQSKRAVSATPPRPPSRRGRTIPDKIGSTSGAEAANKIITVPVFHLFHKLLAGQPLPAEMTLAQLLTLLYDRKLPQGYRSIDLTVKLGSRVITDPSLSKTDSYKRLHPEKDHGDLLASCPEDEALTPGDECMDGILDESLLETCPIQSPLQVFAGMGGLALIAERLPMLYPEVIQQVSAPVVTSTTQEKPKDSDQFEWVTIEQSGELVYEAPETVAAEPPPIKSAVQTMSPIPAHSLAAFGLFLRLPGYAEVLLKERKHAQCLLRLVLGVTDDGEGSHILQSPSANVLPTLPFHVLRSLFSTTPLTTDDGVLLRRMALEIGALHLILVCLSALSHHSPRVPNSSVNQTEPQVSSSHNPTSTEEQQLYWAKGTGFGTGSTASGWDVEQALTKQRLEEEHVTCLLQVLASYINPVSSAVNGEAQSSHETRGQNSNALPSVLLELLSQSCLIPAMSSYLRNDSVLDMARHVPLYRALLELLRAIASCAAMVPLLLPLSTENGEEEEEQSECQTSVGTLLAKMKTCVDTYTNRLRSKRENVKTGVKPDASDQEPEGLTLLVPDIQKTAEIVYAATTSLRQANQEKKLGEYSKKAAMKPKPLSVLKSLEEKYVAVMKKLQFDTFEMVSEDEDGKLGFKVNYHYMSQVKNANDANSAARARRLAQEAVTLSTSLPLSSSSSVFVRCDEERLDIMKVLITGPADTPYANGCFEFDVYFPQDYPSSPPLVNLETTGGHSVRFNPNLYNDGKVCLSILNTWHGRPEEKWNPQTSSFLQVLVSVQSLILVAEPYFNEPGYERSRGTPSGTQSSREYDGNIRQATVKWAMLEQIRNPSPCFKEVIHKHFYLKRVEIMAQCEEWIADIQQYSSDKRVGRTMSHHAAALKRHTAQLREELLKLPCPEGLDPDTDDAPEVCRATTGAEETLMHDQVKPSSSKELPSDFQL

Results are given in words; binding and its absence hold for the method and conditions named. Binding seen in cells or lysates may run through a third protein. Binding calls can cover weak binding; strength is not graded here.

This is an account of results in article doi:10.1101/2024.05.16.594269.

With “BIRC6 (endogenous) (from UniProt Q9NR09 1-4857) (enzyme)”, the binding entry was “binds”.
